Results deposited as PubChem BioAssay AID1259266 (Sanger Institute, 2017).
This is a random part of 794 reagents. Of all reagents, 16 (2%) were called active. 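Calls reflect knock-down alone, not drug synergy; viability seems capped at 1 and z-scores at 0.585.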 No sequences are given here. The record does not give: the amount of reagent, the time to read-out.

- Screen: 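Search kinases and colorectal cancer genes for essential genes and drug synergy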 (primary screen)
- System: LS123 human colorectal cancer cells
- Knock-down reagent: siRNA pool against human genes
- Challenge: anchor drugs BYL719 (1 µM), cetuximab (5 µg/ml) or trametinib (10 nM), each chosen to barely slow growth alone; DMSO vehicle as the drug-free arm
- Detection: 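Replicate-averaged viability scaled to non-targeting pools, robust z-score for siRNA alone, and a synergy score per anchor drug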
- Reading the numbers: robust z-score, knock-down alone: higher = more cells surviving after knock-down; viability, knock-down alone: higher = more viable cells; synergy score with trametinib and synergy score with BYL719 and synergy score with cetuximab: higher = stronger synthetic lethality with drug
- Hit rule: 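a knock-down counts as essential if its z-score without drug is under -3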
- Calls: active = essential (knock-down alone cuts viability); inactive = no change

| target | robust z-score, knock-down alone | viability, knock-down alone (fraction of control) | synergy score with trametinib | synergy score with BYL719 | synergy score with cetuximab | outcome |
| --- | --- | --- | --- | --- | --- | --- |
| GRK5 | 0.585 | 1 | 0.00325 | -0.159 | -0.0122 | inactive |
| ARID1A | 0.585 | 1 | 0.0114 | -0.139 | -0.0122 | inactive |
| MAST4 | 0.585 | 1 | -0.18 | -0.159 | -0.0122 | inactive |
| BCR | 0.585 | 1 | 0.0493 | 0.0102 | -0.00603 | inactive |
| GSK3A | -1.38 | 0.883 | 0.0125 | -0.0124 | 0.0919 | inactive |
| MAPK10 | 0.585 | 1 | -0.0901 | -0.159 | -0.0122 | inactive |
| PRKG2 | 0.585 | 1 | -0.0176 | 0.0298 | 0.122 | inactive |
| ACVR2A | 0.585 | 1 | -0.0844 | -0.0781 | 0.00156 | inactive |
| FCSK | -0.519 | 0.934 | 0.0325 | -0.161 | 0.0212 | inactive |
| NUCKS1 | 0.585 | 1 | -0.0555 | -0.159 | -0.0122 | inactive |
| PI4K2A | 0.585 | 1 | -0.186 | -0.141 | -0.0122 | inactive |
| MAP2K3 | -0.289 | 0.948 | 0.0172 | 0.00848 | 0.0268 | inactive |
| CAMK1D | 0.254 | 0.98 | -0.0355 | -0.0705 | 0.0622 | inactive |
| CSNK1E | -1.8 | 0.858 | -0.138 | -0.12 | -0.0207 | inactive |
| ALDH18A1 | 0.585 | 1 | 0.00886 | -0.0834 | -0.0122 | inactive |
| CDKN2B | 0.585 | 1 | -0.0753 | -0.159 | -0.0122 | inactive |
| PANK1 | 0.585 | 1 | -0.129 | -0.159 | -0.0122 | inactive |
| CKMT2 | 0.585 | 1 | 0.0113 | 0.0459 | 0.0391 | inactive |
| PRKAR2B | -1.4 | 0.882 | -0.017 | -0.0811 | -0.0179 | inactive |
| NEK9 | 0.456 | 0.992 | -0.0473 | -0.0443 | -0.0198 | inactive |

In a second layout: entries from further up.
{"target": "CAMK1D", "robust z-score, knock-down alone": 0.254, "viability, knock-down alone (fraction of control)": 0.98, "synergy score with trametinib": -0.0355, "synergy score with BYL719": -0.0705, "synergy score with cetuximab": 0.0622, "outcome": "inactive"}
{"target": "CSNK1E", "robust z-score, knock-down alone": -1.8, "viability, knock-down alone (fraction of control)": 0.858, "synergy score with trametinib": -0.138, "synergy score with BYL719": -0.12, "synergy score with cetuximab": -0.0207, "outcome": "inactive"}
{"target": "ALDH18A1", "robust z-score, knock-down alone": 0.585, "viability, knock-down alone (fraction of control)": 1, "synergy score with trametinib": 0.00886, "synergy score with BYL719": -0.0834, "synergy score with cetuximab": -0.0122, "outcome": "inactive"}
